In patent US20230107277A1, “SUBSTITUTED PYRIDAZINE COMPOUND” (Astellas Pharma Inc., priority 2020, published 2023):

Tested on: 3T3
Conditions: ICH S10 / OECD guideline 432 in vitro 3T3 NRU phototoxicity test

Q: For `Cc1c(N[C@@H]2CCCC[C@H]2O)nnc(-c2ccc(C(F)(F)F)cc2O)c1C` [Example 63, 2-(6-{[(1R,2R)-2-hydroxycyclohexyl]amino}-4,5-dimethylpyridazin-3-yl)-5-(trifluoromethyl)phenol], which phototoxic effect is on record?
A: The phototoxic effect was “no phototoxic effect”.
